Laboratory results as given in the supplement of paper PMC4862054.
Small differences around the control level are noise.

What was measured:
Assay in all cases: normalised response (% of control), CellTox Green; higher = less cell death (100 = DMSO, 0 = benzethonium chloride kill control)
Conditions in all cases: incubation time: 72 h
HCC1143 = tested on: HCC1143
Procedure: (§1)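 DSRT, 72 h incubation, CellTox Green / CellTiter-Glo readout. Signal is normalised to DMSO and benzethonium chloride controls. Value is the normalised response at the lowest tested concentration.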

MDA-MB-436 = tested on: MDA-MB-436
Procedure: as §1

HCC1599 = tested on: HCC1599
Procedure: as §1

CAL-85-1 = tested on: CAL-85-1
Procedure: as §1

MCF-10A = tested on: MCF-10A
Procedure: as §1

BT-474 = tested on: BT-474
Procedure: as §1

MDA-MB-468 = tested on: MDA-MB-468
Procedure: as §1

DU-4475 = tested on: DU-4475
Procedure: as §1

CAL-148 = tested on: CAL-148
Procedure: as §1

MDA-MB-453 = tested on: MDA-MB-453
Procedure: as §1

CAL-51 = tested on: CAL-51
Procedure: as §1

BT-549 = tested on: BT-549
Procedure: as §1

HDQ-P1 = tested on: HDQ-P1
Procedure: as §1

MDA-MB-231 = tested on: MDA-MB-231
Procedure: as §1

CAL-120 = tested on: CAL-120
Procedure: as §1

HCC1937 = tested on: HCC1937
Procedure: as §1

MFM-223 = tested on: MFM-223
Procedure: as §1

Hs578T = tested on: Hs578T
Procedure: as §1

Row | SMILES | normalised response (HCC1143) | normalised response (MDA-MB-436) | normalised response (HCC1599) | normalised response (CAL-85-1) | normalised response (MCF-10A) | normalised response (BT-474) | normalised response (MDA-MB-468) | normalised response (DU-4475) | normalised response (CAL-148) | normalised response (MDA-MB-453) | normalised response (CAL-51) | normalised response (BT-549) | normalised response (HDQ-P1) | normalised response (MDA-MB-231) | normalised response (CAL-120) | normalised response (HCC1937) | normalised response (MFM-223) | normalised response (Hs578T)
1 | CNCc1ccc(-c2[nH]c3cc(F)cc4c3c2CCNC4=O)cc1 [Rucaparib] (1 nM) | 121% | 71.2% | 95.5% | 101% | 81.2% | 97.9% | 90.2% | 95.3% | 92.4% | 99.9% | 102% | 104% | 94.2% | 88.1% | 98.7% | 57.7% | 52.9% | 99.6%
2 | CC(C)C[C@@H](C(=O)N[C@H](C(=O)OC1CCCC1)c1ccccc1)[C@H](O)C(=O)NO [Tosedostat] (1 nM) | 73.1% | 102% | 107% | 93.3% | 97.2% | 101% | 104% | 105% | 102% | 101% | 119% | 101% | 53.4% | 105% | 106% | 82.2% | 104% | 73%
3 | O=C(c1cc(Cc2n[nH]c(=O)c3ccccc23)ccc1F)N1CCN(C(=O)C2CC2)CC1 [Olaparib] (1 nM) | 111% | 86.3% | 97.2% | 107% | 57% | 95% | 114% | 99.1% | 91.2% | 106% | 107% | 97.6% | 98.7% | 101% | 98.8% | 100% | 104% | 105%
4 | Cc1ccc(NC(=O)c2ccc(CN3CCN(C)CC3)cc2)cc1Nc1nccc(-c2cccnc2)n1 [Imatinib] (1 nM) | 121% | 101% | 104% | 98.7% | 76.7% | 80.5% | 85% | 101% | 106% | 105% | 85.9% | 93.8% | 85% | 60.2% | 102% | 98.4% | 101% | 98.6%
5 | CCCCC(=O)OCC(=O)[C@]1(O)Cc2c(O)c3c(c(O)c2[C@@H](O[C@H]2C[C@H](NC(=O)C(F)(F)F)[C@H](O)[C@H](C)O2)C1)C(=O)c1c(OC)cccc1C3=O [Valrubicin] (0.5 nM) | 136% | 108% | 116% | 88.8% | 112% | 99.3% | 96.4% | 116% | 101% | 105% | 102% | 99.9% | 99.4% | 76% | 108% | 111% | 71.1% | 119%
6 | CC(=O)O[C@]1(C(C)=O)CC[C@H]2[C@@H]3C=C(C)C4=CC(=O)CC[C@]4(C)[C@H]3CC[C@@]21C [Megestrol acetate] (1 nM) | 81.6% | 52% | 104% | 90.7% | 107% | 97.9% | 102% | 100% | 94.8% |  | 108% | 103% | 80.2% | 100% | 99.6% | 119% | 94.1% | 78.2%
7 | CN1CCN(c2nc(C3=C(c4c[nH]c5ccccc45)C(=O)NC3=O)c3ccccc3n2)CC1 [Sotrastaurin] (1 nM) | 119% | 74.3% | 92.2% | 98.3% | 90.9% | 98.8% | 125% | 99.2% | 66.8% | 103% | 97.5% | 102% | 99.9% | 105% | 100% | 88.1% | 102% | 52.1%
8 | C=C(c1ccc(C(=O)O)cc1)c1cc2c(cc1C)C(C)(C)CCC2(C)C [Bexarotene] (1 nM) | 123% | 85.7% | 99.7% | 112% | 107% | 103% | 78.1% | 99.3% | 103% | 103% | 105% | 99.8% | 95.5% | 93.3% | 83.1% | 61.9% | 94% | 80%
9 | CC/C(=C(\c1ccc(O)cc1)c1ccc(OCCN(C)C)cc1)c1ccccc1 [4-hydroxytamoxifen] (1 nM) | 99.7% | 98.4% | 117% | 91.2% | 96.3% | 99.7% | 104% | 112% | 70.9% | 105% | 113% | 98.8% | 99% | 106% | 106% | 106% | 69% | 102%
10 | c1ccc([C@H]2CN3CCSC3=N2)cc1 [Levamisole] (1 nM) | 55.7% | 89.2% | 96.8% | 102% | 109% | 75.8% | 119% | 104% | 102% | 107% | 96.6% | 98.5% | 99.2% | 103% | 101% | 82.8% | 101% | 104%
